Experimental data as given in PubChem BioAssay AID624297 (National Center for Advancing Translational Sciences (NCATS), 2012).
Among all 340,000 compounds or so, about 6,200 (1.8%) were called active. Inconclusive results, whose numbers are uncertain, are shown with a selection of clear calls. Calls follow the shape of the dose curve; as a rule, active = well fitted activation curve with a large enough effect; inconclusive = small, poorly fitted or top-dose-only effect; inactive = no such curve, though single readings can be large or run the other way. Potencies beside an inconclusive call are fits to weak or partial responses and may not hold up.

Assay: A quantitative high throughput screen for small molecules that induce DNA re-replication in SW480 colon adenocarcinoma cells. Also: nearly all actives have a fitted effect of over 55% in size.
Settings: Hoechst DNA content imaging, 48 h; series mostly up to 46.1 µM
Summary of the method: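 DNA re-replication was detected as more nuclei of elevated Hoechst intensity after 48 hr exposure to compound (23 nL pinned per well of 250 cells).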
Potency is read from the fitted curve at half-maximal effect.

SMILES | Potency
COC(=O)COc1ccc(C2NC(=O)NC(c3ccccc3)=C2C(C)=O)cc1Br (centres undefined) | inactive
CCN(CC)CCn1c2c(c(SCC(=O)Nc3cccc(C(C)=O)c3)nc1=O)CCCC2 | inactive
CC[C@]1([C@H]2O[C@@H]([C@@H]3O[C@](O)(CO)[C@@H](C)C[C@H]3C)C[C@H]2C)CC[C@@H]([C@]2(C)CC[C@@]3(C[C@@H](O)[C@@H](C)[C@@H]([C@H](C)[C@H](OC)[C@H](C)C(=O)O)O3)O2)O1 | inconclusive: 9.44 µM [activator, partial curve]
CCOc1ncccc1C(=O)N(CCC(C)C)c1c(N)n(Cc2ccccc2)c(=O)[nH]c1=O | inconclusive: 29.1 µM [activator, single point]
CC(C)N1CCC(N2CCN(C3CCCC3)CC2CCO)CC1 (centres undefined) | inactive
O=C1CCCc2[nH]c3cccc(/C(=C/c4ccccc4)c4ccccc4)c3c21 | inactive
CCN(Cc1ccccc1)S(=O)(=O)c1cc(C(=O)NC(C)C2CC3CCC2C3)ccc1OC (centres undefined) | inconclusive: 29.1 µM [activator, partial curve, poor fit]
COc1ccc(S(=O)(=O)N(C)CC(=O)N2CCCCCC2)cc1 | inconclusive: 1.46 µM [activator, partial curve, poor fit]
CCOc1ccc(CCNC(=O)c2ccc(CS(=O)Cc3ccccc3Cl)o2)cc1 (centres undefined) | inconclusive: 2.91 µM [activator, single point]
OCCN(CCO)CC(O)Cn1c2ccccc2c2ccccc21 (centres undefined) | inconclusive: 18.4 µM [activator, partial curve, poor fit]
CN(CCc1ccccc1)C(=O)c1ccc(NC(=O)Cc2ccc(NC(=O)C3CCCN(C(=O)C4CCCCC4)C3)cc2)cc1 (centres undefined) | inconclusive: 0.82 µM [activator, full curve, poor fit]
COc1cccc(C2=CC(c3ccc(N(C)C)cc3)n3nnnc3N2)c1 (centres undefined) | inconclusive: 18.4 µM [activator, single point]
COC(=O)c1cc(=O)n(-c2ccc(C(F)(F)F)cc2)[nH]1 | inactive
Cc1nn(-c2ccccc2)c(N2CCCC2)c1/C=N/NC(=S)Nc1cc(C(F)(F)F)ccc1Cl | inconclusive: 23.1 µM [activator, partial curve, poor fit]
Cc1nc2cc(NS(=O)(=O)c3ccccc3)ccc2n1C | inactive
Cc1ccc(NC(=O)/C=C/c2ccc(S(=O)(=O)N3CCOCC3)cc2)cc1S(=O)(=O)N(C)C | inconclusive: 23.1 µM [activator, single point]
CCOC(=O)C1CCN(C(=O)C2CCCN(S(=O)(=O)c3ccc(OC)c(Cl)c3)C2)CC1 (centres undefined) | inconclusive: 0.411 µM [activator, full curve, poor fit]
Cc1nn(Cc2c(F)cccc2Cl)c(C)c1NC(=O)C1CC1 | active: 0.517 µM
Cc1ccc2nc(SCC(=O)N3CCCCC3)nc(=O)n2c1 | inconclusive: 18.4 µM [activator, single point]
Cc1cccc(C2=NN(c3ccccc3)[C@H](CO)[C@H]2c2ccc(Cl)cc2)c1 | active: 13 µM
CCOC(=O)c1ccccc1NC(=O)Cn1cnc2c(cnn2C(C)(C)C)c1=O | inactive
CN1C(=O)C[C@@H](C(=O)N[C@@H](Cc2cnc[nH]2)C(=O)N2CCC[C@H]2C(N)=O)NC1=O | inactive
O=C1CC(Sc2nnc(-c3ccccc3)o2)C(=O)N1c1ccccc1 (centres undefined) | active: 7.31 µM

Some of the entries so far, in CSV form.
SMILES,Potency
CCN(CC)CCn1c2c(c(SCC(=O)Nc3cccc(C(C)=O)c3)nc1=O)CCCC2,inactive
CC[C@]1([C@H]2O[C@@H]([C@@H]3O[C@](O)(CO)[C@@H](C)C[C@H]3C)C[C@H]2C)CC[C@@H]([C@]2(C)CC[C@@]3(C[C@@H](O)[C@@H](C)[C@@H]([C@H](C)[C@H](OC)[C@H](C)C(=O)O)O3)O2)O1,"inconclusive: 9.44 µM [activator, partial curve]"
CCOc1ncccc1C(=O)N(CCC(C)C)c1c(N)n(Cc2ccccc2)c(=O)[nH]c1=O,"inconclusive: 29.1 µM [activator, single point]"
CC(C)N1CCC(N2CCN(C3CCCC3)CC2CCO)CC1 (centres undefined),inactive

(list continues)

SMILES | Potency
CCOc1cc(/C=C2/C(=O)ON=C2C)ccc1OCc1ccccc1 | inconclusive: 18.4 µM [activator, single point]
O=C(O)c1ccc(CSc2nc3ccccc3[nH]2)cc1 | inconclusive: 0.0046 µM [activator, full curve, poor fit]
O=C(Nc1ccn(CC(=O)N2CCN(c3ccccn3)CC2)c(=O)n1)OCc1ccccc1 | inactive
COCCN1Cc2cccc(C(=O)Nc3c(C)cc(C)cc3C)c2C1=O | inconclusive: 3.55 µM [activator, full curve]
O=C1c2sc3nc4n(c(=O)c3c2CCC1Br)CCCCC4 (centres undefined) | inconclusive: 18.4 µM [activator, single point]
Cc1ccc(F)cc1CNC(=O)C1CCC(=O)N(CCCN2CCCC2=O)C1 (centres undefined) | inactive
CN1C(=O)/C(=C2/C=Cc3ccccc3N2CCCS(=O)(=O)O)SC1=S | inactive
CCOC(=O)c1cnc2sccn2c1=O | active: 14.6 µM
COC(=O)c1c(NC(=O)CC2SC(N)=NC2=O)sc2c1CCC(C)C2 (centres undefined) | inactive
CCOC(=O)N1CCN(S(=O)(=O)c2ccc(C(=O)N(CCCN(C)C)c3nc4ccc(OC)cc4s3)cc2)CC1 | inactive
Cc1cc(Cl)ccc1OCC(=O)Nc1ccncc1 | inactive
O=C(C(=O)N(Cc1ccccc1)Cc1ccccc1)c1c(-c2ccccc2)[nH]c2ccccc12 | active: 18.4 µM
O=C(Oc1cccc(-n2cnnn2)c1)c1ccccc1Cl | inconclusive: 29.1 µM [activator, single point]
CCCCCCSc1ccc([C@@H]2[C@@H]3C(=O)N(CC)C(=O)[C@@H]3[C@]3(C(=O)OC)CCCCN23)cc1OC | inconclusive: 29.1 µM [activator, single point]
Cc1[nH]c2ccccc2c1CCN(Cc1cccnc1)C(=S)Nc1ccc(F)cc1 | inactive
CC(C)N(Cc1ccccc1)C(=O)C1CCCN(c2ncnc3c2nc2n3CCCCC2)C1 (centres undefined) | inactive
COc1ccc(OC)c(NC(=O)CC2SC(=Nc3ccc(F)cc3)N(CCC3=CCCCC3)C2=O)c1 (centres undefined) | inactive
CCOC(=O)C1=C(C)N(C[C@@H]2CC[C@@H](Cc3ccc4cc(OC)ccc4c3)O2)C(=O)NC1c1ccc(OC)cc1 (some centres undefined) | inconclusive: 3.66 µM [activator, single point]
Cc1ccc(NC(=S)N2CCCC(c3nc4ccccc4[nH]3)C2)cc1 (centres undefined) | inactive
COc1ccc(OC)c(C(O)CNC(=O)CN)c1 (centres undefined) | inconclusive: 3.16 µM [activator, single point]
CC(S)C(=O)NCC(=O)O (centres undefined) | inactive
CN(C)CCN1C(=O)c2ccccc2N(C)c2ccccc21 | inactive
CCCC(=O)OC[C@@H](OC(=O)CCC)[C@@H](OC(=O)CCC)[C@H](Cn1c2nc(=O)[nH]c(=O)c-2nc2cc(C)c(C)cc21)OC(=O)CCC | inconclusive: 11.9 µM [activator, full curve, poor fit]

SMILES | Potency
Cc1cc(C)n2nc(C(=O)OCC(=O)c3ccccc3)nc2n1 | active: 8.2 µM
O=C(NCc1ccc(N2CCCC2=O)cc1)Nc1cccc(Cl)c1 | inconclusive: 0.58 µM [activator, partial curve, poor fit]
Cc1ccccc1C(=O)NC(=S)NCCc1ccccc1 | inactive
CCN1CCN(CC(O)COc2ccc(Cl)cc2)CC1 (centres undefined) | inconclusive: 14.6 µM [activator, partial curve, poor fit]
COc1ccc([C@H]2/C=C\CN(C(=O)c3ccccc3)[C@@H](C)C(=O)N2Cc2ccc(F)cc2)cc1 | inconclusive: 25.9 µM [activator, partial curve, poor fit]
O=C(Cc1ccc(Br)cc1)OCC(=O)N1CCOCC1 | inconclusive: 2.91 µM [activator, single point]
COc1ccc(C(=O)NCCCN(C)CCCNC(=O)c2ccc(OC)cc2)cc1 | inconclusive: 6.51 µM [activator, single point]
CCOc1ccc(C(C(=O)NC2CCCCC2)N(C(=O)Cc2cccs2)c2ccc(-n3cnnn3)c(OC)c2)cc1 (centres undefined) | inconclusive: 20.6 µM [activator, partial curve, poor fit]
COc1ccccc1-n1cnnc1SCC(=O)Nc1cc(C)on1 | inconclusive: 16.4 µM [activator, single point]
CN1CCN(CCOc2ccc(-c3ccccc3)cc2)CC1 | inconclusive: 14.6 µM [activator, single point]
OCCCn1c(-c2ccccc2)nc(=S)c2c1CCCC2 | inactive
COc1ccc(Cn2c(O)c(C=Nc3ccc(O)cc3)c3ccccc3c2=O)cc1 | inconclusive: 29.1 µM [activator, single point]
CCN(C(=O)COC(=O)c1ccc(Cl)nc1)C1CCS(=O)(=O)C1 (centres undefined) | inconclusive: 0.058 µM [activator, full curve, poor fit]
CCNc1nc(C23CC4CC(CC(C4)C2)C3)cs1 | inconclusive: 8.2 µM [activator, partial curve]
Cn1c(CNC(=O)CNC(=O)c2ccccc2)cc(=O)n(C)c1=O | inconclusive: 29.1 µM [activator, single point]
COc1ccc(N2CCN(c3cc(C)c4ccc(O)cc4n3)CC2)cc1 | inactive
CCCN(CCC)c1nc(N)nc(-c2cc(Cl)ccc2OC)n1 | inactive
OCC1(Cc2ccccc2C(F)(F)F)CCN(Cc2ccccc2)CC1 | inactive
O=C(Nc1ccc(C(F)(F)F)cc1)c1cc(S(=O)(=O)NCC2COc3ccccc3O2)ccc1F (centres undefined) | inconclusive: 23.1 µM [activator, single point]
CC1C(=O)N2CCCc3cc(S(=O)(=O)N(C)Cc4ccccc4)cc1c32 (centres undefined) | inactive
CN(C)c1ccc(NS(=O)(=O)c2cc(Cl)ccc2Cl)cc1 | inconclusive: 20.6 µM [activator, single point]
O=C(N/N=C/c1ccc(-c2ccccc2)o1)c1ccccc1O | inconclusive: 29.1 µM [activator, single point]
O=C(c1noc2c1CCCC2)N1CCc2c([nH]c3ccccc23)C1c1ccccn1 (centres undefined) | inconclusive: 29.1 µM [activator, single point]
